Microarray screen: hit calls

Oligonucleotides screened, 5′ to 3′:
TPP: TPP riboswitch RNA three-way junction, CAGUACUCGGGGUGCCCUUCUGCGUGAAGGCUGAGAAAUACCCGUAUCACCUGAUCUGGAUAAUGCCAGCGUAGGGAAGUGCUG. Hit rate about 0.7% of about 24,000 compounds.
PreQ1: PreQ1 riboswitch RNA pseudoknot, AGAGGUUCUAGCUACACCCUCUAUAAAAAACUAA. From B. subtilis. Hit rate about 0.7% of about 24,000 compounds.
SAM-II: SAM-II riboswitch RNA pseudoknot, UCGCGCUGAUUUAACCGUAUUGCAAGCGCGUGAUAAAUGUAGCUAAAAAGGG. Hit rate about 1% of about 21,000 compounds.

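Each compound is printed as two spots on a slide made to bind it covalently, so it has no test concentration; the read-out is fluorescence of the bound, labelled oligonucleotide. The data file lists only calls. An earlier report of the laboratory on the PreQ1, TPP and SAM-II riboswitches (doi:10.1038/s41467-019-09493-3) used 1 µM RNA for 2 h and required a mean Z-score above 3 (spot signal-to-noise against the whole library), a score well above that on a control array, and duplicate spots agreeing (coefficient of variation under 100); it then also set aside compounds that hit other targets, which this list keeps. The cut-offs behind this list may differ. The calls come from the array alone, and fixing a compound to the slide can hide its binding.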
Key: Y = hit, N = tested without a hit.
Compounds were drawn at random from those tested, without regard to their results.
A dash means that no call is listed here.

SMILES | TPP | PreQ1 | SAM-II
Cc1nc2nc(CN)nn2c(C)c1CCC(=O)Nc1ccc(Cl)cc1 | N | N | -
Cc1c(Cl)cccc1NC1=NS(=O)(=O)c2ccccc21 | N | N | N
Nc1nnc(CCCn2c(=O)oc3ccccc32)s1 | N | N | N
CCCCCCNCc1ccc(C)s1 | N | N | N
CN1[C@H](C(=O)O)C[C@H](C(=O)N[C@H]2CC[C@H](O)CC2)[C@@H]1c1cccc(F)c1F | N | N | N
C[C@H](NC(=O)c1sccc1OCc1ccc(Cl)cc1)c1ccccc1 | N | N | N
COc1ccc(-c2csc(Nc3ccc(N(C)C)cc3)n2)cc1 | N | N | N
CC(Cn1cccn1)NC1CCN(S(=O)(=O)c2ccccc2)CC1 (stereo unspecified) | N | N | N
Cc1ccc(OCCn2c(CO)nc3ccccc32)cc1 | N | N | N
COc1cccc(CNc2c(-c3ccc(Cl)cc3)c(=O)c2=O)c1 | N | N | -
COc1cccc(NC2=NS(=O)(=O)c3ccccc32)c1 | N | N | N
Cc1ccc(S(=O)(=O)Nc2nc3ccc(N)cc3s2)cc1 | N | N | N
CC(C)OC(=O)C(C)Nc1ccc(F)c(Cl)c1 (stereo unspecified) | N | N | N
CCCCc1ccc(C(=O)n2nc(N)c3cc4ccc(OC)cc4nc32)cc1 | N | N | N
OC1CNCCN(Cc2cnc(-c3cccc4ccccc34)nc2)C1 (stereo unspecified) | N | N | N
CCOC(=O)c1nc(Nc2ccccc2)sc1N | N | N | N
Nc1ccsc1C(=O)N1C[C@H]2CC[C@@H]1CN(Cc1cscn1)C2 | N | N | N
Cc1cc(C)n(CC(O)Cn2c3ccc(I)cc3c3cc(I)ccc32)n1 (stereo unspecified) | N | N | N
Cc1cc(I)cc(C)c1NC(=O)C1CC(O)CN1C(=O)Oc1ccccc1 (stereo unspecified) | N | N | N
O=C(c1cccc2c1OCC2)N1CCCC(CO)(Cc2ccccc2)C1 (stereo unspecified) | N | N | N
OCCCc1nnc(SCc2nc3ccccc3[nH]2)n1-c1ccccc1 | N | N | N
Cc1cc(Nc2ccccc2C(=O)O)c2cccc(C)c2n1 | N | N | N
Cc1nn(-c2ccccc2)c2c1C1(C(=O)Nc3ccccc31)C(C#N)=C(N)O2 (stereo unspecified) | N | N | N
N[C@H](Cc1ccccc1)C(=O)N1CCCN(Cc2ccc(F)cc2)CC1 | N | N | N
Nc1nonc1-n1nnc(CN2CCCCC2)c1CN1CCCCC1 | N | N | N
CSCCC(O)C(=O)N1CCC(OCc2cccnc2)CC1 (stereo unspecified) | N | N | N
O=C(c1nc(-c2ccccc2)n(-c2cccc(Cl)c2)n1)N(CCO)Cc1ccccc1 | N | N | -
C[CH2][Ge]([CH2]C)([CH2]C)[c]1nn[nH]c1CNCc1ccccc1 | N | N | N
Cc1cccc(-c2[nH]c(C(C)(C)C)nc2-c2ccc3c(c2)OCO3)n1 | N | N | N
CC(=O)c1cccc(NCn2nnc3ccccc32)c1 | N | N | N
COc1ccccc1NC1OC(=O)c2ccccc21 (stereo unspecified) | N | N | N
COc1ccc([C@H]2CN(C(=O)Cc3c(C)nc(C)[nH]c3=O)C[C@@H]2N)cc1 | N | N | N
COc1ccc(CNCc2ccccn2)cc1Cl | N | N | N
OC(Cn1nnc2ccccc21)Cn1c2ccc(Cl)cc2c2cc(Cl)ccc21 (stereo unspecified) | N | N | N
Cc1ccc(NC(c2ccc(C)s2)c2nnnn2-c2c(C)cccc2C)cc1 (stereo unspecified) | N | N | N
CC(CCc1ccccc1)NCCSc1cnn[nH]1 (stereo unspecified) | N | N | N
COc1ccc2c(c1OC)C(=O)OC2Nc1ncccc1C (stereo unspecified) | N | N | N
O=C(O)[C@@H]1CN(Cc2ccc(OCCO)cc2)C[C@H]1c1cccc(F)c1 | N | N | N
Nc1nc(N2CCC(n3cc(-c4cccnc4)nn3)CC2)c2nc[nH]c2n1 | N | N | Y
CNC(=O)c1nn(-c2ccc(Cl)cc2)nc1CO | N | N | -
CCNC(=O)[C@@H]1C[C@@H](N)CN1C(=O)c1ccc2nc(C)c(C)nc2c1 | N | N | N
CC1(C)Cc2c(c(N3CCOCC3)nc3sc4c(NCC5CCCO5)ncnc4c23)CO1 (stereo unspecified) | N | N | N
O=P(O)(O)C(O)(Cn1ccnc1)P(=O)(O)O | N | N | N
Cc1cc(C)n(C(=N)NC(=O)c2ccc([N+](=O)[O-])cc2)n1 | N | N | N
Nc1nonc1C(=O)N1CCN(C(=O)Nc2ccc(F)cc2)CC1 | N | N | -
Cc1ccc(Nc2cc(-n3nc(C)cc3C)ncn2)cc1 | N | N | N
COC(=O)c1ccc(Nc2cc(C)nc3cc(C(F)(F)F)ccc23)cc1 | N | N | N
CC(C)(C)NC(=O)Nc1cccc(Nc2ncc(F)c(NC(C)(C)CO)n2)c1 | N | N | N
c1ccc(NC(c2ccccc2)c2ccncc2)cc1 (stereo unspecified) | N | N | N
NCCc1nc(-c2ccccc2)cs1 | N | N | N
CC(C)=CCC1(CO)CCCN(C(=O)Cn2nnnc2C)C1 (stereo unspecified) | N | N | N
CCS(=O)(=O)c1n[nH]c(N)n1 | N | N | N
NCCc1cccc(CN2CCOCC(CO)C2)c1 (stereo unspecified) | N | N | N
Cc1ccc2nc(NCCc3ccc(Cl)cc3)c3nncn3c2c1 | N | N | N
CCN(CC)C(=O)[C@@H]1C[C@@H](N)CN1C(=O)c1ccc2c(c1)OCC(=O)N2 | N | N | N
CCC(CO)N(Cc1ccccn1)C(=O)c1ccc(CSC)o1 (stereo unspecified) | N | N | N
CCC(O)c1nc2ccccc2n1Cc1ccccc1 (stereo unspecified) | N | N | -
CCn1c(C(=O)O)c(CNCc2ccc(C)cc2)c2ccc(C)cc21 | N | N | -
CCCCCC(=O)N1c2ccccc2C(Nc2ccccc2)CC1C (stereo unspecified) | N | N | N
CC(O)C(=O)NS(=O)(=O)c1ccccc1 (stereo unspecified) | N | N | N
N#CC1=C(N)Oc2c(oc(CO)cc2=O)C1c1cccnc1 (stereo unspecified) | N | N | N
CS(=O)(=O)c1cnc(NCc2cn3ccsc3n2)nc1C1CCCNC1 (stereo unspecified) | N | N | N
CCCCCCn1c(=O)c2c(nc(NCc3ccco3)n2C)n(C)c1=O | N | N | N
N#Cc1c(N)nc2c(c1-c1ccccc1F)CCCCC2 | N | N | N
N#Cc1c(-c2c[nH]c3ccccc23)cc(-c2ccc(O)cc2)nc1N | N | N | N
NC1=C(c2nc3ccccc3[nH]2)C(=O)CN1CC1CCCO1 (stereo unspecified) | N | N | -
O=C(c1cccs1)N1CCC(N2CCNCC(O)C2)CC1 (stereo unspecified) | N | N | N
OCC#Cc1csc(CN2CCCn3cncc3C2)c1 | N | N | N
CCc1sc(-c2c(C#N)c(N)nc3c2CCCCC3)cc1[N+](=O)[O-] | N | N | N
Cc1ccc(-c2nc3ccc(Cl)cn3c2Nc2ccc3c(c2)OCO3)o1 | N | N | N

The first 5 entries again:

| SMILES | TPP | PreQ1 | SAM-II |
|---|---|---|---|
| `Cc1nc2nc(CN)nn2c(C)c1CCC(=O)Nc1ccc(Cl)cc1` | N | N | - |
| `Cc1c(Cl)cccc1NC1=NS(=O)(=O)c2ccccc21` | N | N | N |
| `Nc1nnc(CCCn2c(=O)oc3ccccc32)s1` | N | N | N |
| `CCCCCCNCc1ccc(C)s1` | N | N | N |
| `CN1[C@H](C(=O)O)C[C@H](C(=O)N[C@H]2CC[C@H](O)CC2)[C@@H]1c1cccc(F)c1F` | N | N | N |

Source: the ROBIN nucleic acid binder screens (doi:10.1002/anie.202211358).